Results reported in PubChem BioAssay AID2810 (NMMLSC, 2010).
Some of the results follow. Further columns of the screen follow, without active or inactive calls.

Experiment: modulators of CD8 T cell-vesicle binding, confirmation, cherry-picked primary hits, two concentrations (AID 2810);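 also: lower values mean blocking of vesicle binding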;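 as to percent response (vesicle binding): ratio of mean FL2 vesicle stain of CD8+ cells to that row's control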
Settings: 2C CD8+ T cell-vesicle binding, flow cytometry; for double positive events: CD8+/vesicle+ events
[1] = at 15.4 µM, stronger effect = lower value

Structure (SMILES) | double positive events (at 7.7 µM) | double positive events [1] | percent response (vesicle binding) (at 7.7 µM)
O=C(COC(=O)CNC(=O)C1CCCCC1)Nc1ccccc1Cl | 17.1% | 29% | 216%
Cc1ccc2nc(-c3cccc(SC4CCCCC4)c3)c(NC3CCCCC3)n2c1 | 8.8% | 11.3% | 146%
CCOc1cc(/C=C2\C(=N)N3N=CSC3=NC2=O)ccc1OS(=O)(=O)c1ccccc1 | 28.4% | 16.8% | 413%
CCOC(=O)c1c(C)oc2c(CN3CCN(C)CC3)c(Br)c(OC)c(O)c12 | 11.4% | 16.4% | 197%
N=c1c(S(=O)(=O)c2ccccc2)cc2c(=O)n3ccccc3nc2n1CC1CCCO1 (stereo not given) | 30.8% | 17.4% | 265%
CC12CC3(C)CC(C)(C1)CC(C(N)=O)(C2)C3 | 9.4% | 10.3% | 132%
Cc1ccc(S(=O)(=O)N2CCN(c3nc4ccccc4nc3-n3nc(C)cc3C)CC2)cc1 | 10.5% | 34.4% | 305%
CCN(C(=O)Cn1c(=O)oc2ccccc21)c1cccc(C(F)(F)F)c1 | 11.5% | 13.9% | 263%
Cn1c(SCC(=O)Nc2ccc(N3CCOCC3)cc2)nnc1C(F)(F)F | 24.7% | 25.7% | 199%
CCOP(=O)(OCC)c1nc(-c2cccc3ccccc23)oc1N1CCOCC1 | 10.7% | 9.7% | 112%
C/C(=N/NC(=O)c1ccc2c(c1)OCO2)c1cccc(NC(=O)C(C)(C)C)c1 | 12.9% | 14.4% | 145%
FC(F)(F)c1cccc(Cc2noc(CN3CCC(c4ccncc4)CC3)n2)c1 | 25.9% | 31.9% | 377%
O=C(CCC(=O)c1ccccc1)Nc1cccnc1 | 14.9% | 25.8% | 178%
O=C(O)c1ccc2oc(SCC(=O)N3CCCCC3)nc2c1 | 30% | 25.4% | 243%
COc1cc(OC)c(NC(=O)[C@@H]2CCC(=O)N2C2OC(=O)c3c2ccc(OC)c3OC)cc1Cl (stereo not given in full) | 17.5% | 33.7% | 197%
CCc1ccc(NC(=O)[C@H](C)NC(=O)C2CCN(C(=O)[C@@H](N)Cc3ccccc3)CC2)cc1 | 12.7% | 31% | 336%
Cc1cc(C(F)F)nn1CC(=O)N1CCSCC1 | 9.4% | 37.2% | 390%
Cc1ccc(Cl)cc1N1CCN(C(=O)C2CCN(c3nnc(-n4cccc4)s3)CC2)CC1 | 8.8% | 14.1% | 162%
COc1ccc(N2CCN(C(=O)Cc3nn(C)c(=O)c4ccccc34)CC2)cc1 | 21.8% | 17.4% | 188%
Cn1c(Cn2cnc([N+](=O)[O-])n2)nnc1SCC(=O)Nc1ccccc1 | 33.6% | 13% | 171%
CCOC(=O)[C@H]1[C@H]2COc3cc(OC)ccc3[C@@H]2N2C(=O)CN(CC3CCCO3)C(=O)[C@@]12C (stereo not given in full) | 13.1% | 18.4% | 438%
CCOC(=O)c1cn(CC)c2cc(Cl)c([N+](=O)[O-])cc2c1=O | 20.9% | 1.4% | 326%
CCN(Cc1ccccc1)C(=O)CSc1nc(C)cc2c1C(=O)OC2 | 11.7% | 25.9% | 330%
COc1ccc2cc(C(=O)COC(=O)COc3ccc4c(C)cc(=O)oc4c3)ccc2c1 | 10.1% | 21.2% | 109%
O=C(NC1CCCCC1)C1CCCN1C(=O)NCc1ccccc1 (stereo not given) | 19.1% | 7.2% | 152%

Structure (SMILES) | double positive events (at 7.7 µM) | double positive events [1] | percent response (vesicle binding) (at 7.7 µM)
CCOC(=O)c1c(C)n(C)c2ccc(OCC(O)CNC(CC)CO)cc12 (stereo not given) | 12.6% | 19.1% | 175%
O=S(=O)(N/N=C\c1ccc(-c2ccccc2Cl)o1)c1ccccc1 | 18.7% | 11.1% | 514%
CCOC(=O)/C=C1\SCC(=O)N1CC(=O)NC1CCCCC1 | 14.9% | 28.7% | 396%
Clc1ccc(COC(Cn2ccnc2)c2ccc(Cl)cc2Cl)c(Cl)c1 (stereo not given) | 8.8% | 15.8% | 358%
COC(=O)C1CCCCN1C(=O)c1cc(COc2cccc3cnccc23)on1 (stereo not given) | 16.8% | 14.9% | 210%
CCOc1ccc(S(=O)(=O)N2CCC(C(=O)OC(C)C(=O)NC3CCCCC3C)CC2)cc1 (stereo not given) | 17.2% | 12.3% | 87%
CCc1ccc(/C(C)=N/NC(=O)c2ccc(-n3cnnn3)cc2)cc1 | 11% | 10.6% | 547%
COc1ccc(C(=O)Nc2c3c(nn2C(C)(C)C)CS(=O)(=O)C3)cc1OC | 7.3% | 7.7% | 268%
COC(=O)c1c(NC(=O)c2ccccc2)sc(Cc2ccccc2)c1C | 10.6% | 28.6% | 348%
O=c1cc(N2CCc3ccccc3C2)[nH]c(=O)n1-c1ccc(Br)cc1 | 25.9% | 11.3% | 165%
O=C(NCc1cccnc1)C(=O)NCC(c1ccco1)N1CCN(c2ccccc2F)CC1 (stereo not given) | 25% | 19% | 186%
Cc1ccccc1C(=O)NCC(=O)NNC(=O)c1cccc(Cl)c1 | 25.2% | 21.4% | 294%
COc1ccc2c(c1)-c1c(sn(-c3ccc(OC)c(OC)c3)c1=S)C(C)(C)N2 | 14% | 1.7% | 179%
COc1ccc(-n2c(=O)c(CCC(=O)N3CCC(C)CC3)nc3ccccc32)cc1 | 11.9% | 11.7% | 127%
O=C1CN(C(=O)COC(=O)c2ccc([N+](=O)[O-])o2)c2ccccc2N1 | 26.6% | 14.9% | 231%
Cc1ccc(S(=O)(=O)N(C(=O)c2ccncc2)c2ccc(OC(=O)c3ccncc3)c3ccccc23)cc1 | 25.8% | 47.5% | 207%
Cc1cc(=O)oc2cc(NC(=O)C3COc4ccccc4O3)ccc12 (stereo not given) | 34.3% | 14.2% | 255%
CCn1c(SCC(=O)Nc2ccc(C(C)=O)cc2)nc2nc3c(cc2c1=O)CCCC3 | 12.3% | 13.1% | 216%
Cc1nn(C)c(C)c1CN(C)S(=O)(=O)c1ccc(F)cc1 | 23.5% | 4.7% | 218%
CC1CCN(C(=O)CCC(=O)Nc2nnc(C(F)(F)F)s2)CC1 | 28.7% | 8.4% | 320%
CC(=O)c1c(C)[nH]c(C(=O)OCC(=O)NCc2ccc(Cl)cc2)c1C | 15.9% | 14.5% | 218%
Cc1ccc2ccc3ccc(C)nc3c2n1 | 14.3% | 11.3% | 374%
CC(C)NC(=O)N(C)C[C@H]1Oc2ccc(NS(=O)(=O)c3ccccc3)cc2C(=O)N([C@H](C)CO)C[C@H]1C | 19.5% | 11.7% | 102%
COc1ccc(/C=C/C(=O)ONC2=NCCCCC2)cc1OC | 16% | 29.1% | 337%
Cc1sc2ncnc(SCC(=O)Nc3ccc(CN4CCCC4)cc3)c2c1C | 8.9% | 13.1% | 122%

Quoted from the listing:
double positive events [1], CCn1c(SCC(=O)Nc2ccc(C(C)=O)cc2)nc2nc3c(cc2c1=O)CCCC3 reads 13.1%
double positive events (at 7.7 µM), O=C1CN(C(=O)COC(=O)c2ccc([N+](=O)[O-])o2)c2ccccc2N1 reads 26.6%
double positive events (at 7.7 µM), Cc1cc(=O)oc2cc(NC(=O)C3COc4ccccc4O3)ccc12 (stereo not given) reads 34.3%
